From patent US5173486A, “Dibenz[b,f][1,4]oxazepin-11(10H)-ones for multidrug resistance reversing agents” (Bristol-Myers Squibb Company, priority 1991, dated 1992)

Test system: MCF-7 cells
Test: Cytotoxic assay, Adriamycin in sensitive human breast carcinoma MCF-7 cells
Type: cell-based
Conditions: MCF7, MCF-7 (sensitive), no chemosensitizer, 48 hours, read-out: ADR IC50
Protocol: Cell Culture: HCT116/VM46 cells were selected from human colon carcinoma HCT116 cell line for resistance to VM26 and MCF-7/ADR cells were selected from human breast carcinoma MCF-7 cell line for resistance to Adriamycin. […] The cell lines were grown in tissue culture flasks containing McCoy's A medium and 10% fetal bovine serum. Cells were maintained at 37° C. in a humidified atmosphere containing 5% CO2 and subcultured every 5 days.
Cytotoxic Assay: The cells were seeded in 96 well microtiter plates at 5×10^3 cells per well and allowed to grow for 24 hours at 37° C. Cells were then incubated with decreasing amounts of antitumor agents: Adriamycin (100 μM, maximal concentration) or actinomycin D (17.6 ng/ml), for MCF-7 and HCT-116 cells, respectively. Chemosensitizers were added at variable concentrations ranging from 0.08 μM to 40 μM. In parallel, verapamil was used as positive control at the same concentrations. After 48 hours of incubation, the cells were washed, fixed and stained with crystal violet. Absorbance was read by Molecular Devices' microtiter plate reader at the wavelength of 595nm. The IC50 value (50% inhibition of cell growth) was determined from relative survival rates resulted from two to three independent experiments. […]

## COc1cccc2c1C(=O)c1c(O)c3c(c(O)c1C2=O)C[C@@](O)(C(=O)CO)C[C@@H]3O[C@H]1C[C@H](N)[C@H](O)[C@H](C)O1 [ADR]
  IC50: 360 nM
